Results as given in PMC3139631.
Construct, isoform or probe ends are uncertain for at least one entry. For some assays here: Negatives hold for the conditions tested. Tags and fusion partners may be left off the protein sequences shown.

Tests used:
[1] = biological target: T1, CosR (rCosR) (UniProt Q0PBF4); test: EMSA; details: rCosR 0-3.2 nM, probe 0.2 nM; EMSA: 20 mM HEPES pH 7.6, 1 mM EDTA, 10 mM (NH4)2SO4, 5 mM DTT, 0.2% Tween 20, 30 mM KCl, 0.1 ug poly(dI-dC) in 10 ul, 37 C 15 min; recombinant protein; label: 32P; probe letters rebuilt from the primers and the genome
T1 sequence (looked up, limits assumed): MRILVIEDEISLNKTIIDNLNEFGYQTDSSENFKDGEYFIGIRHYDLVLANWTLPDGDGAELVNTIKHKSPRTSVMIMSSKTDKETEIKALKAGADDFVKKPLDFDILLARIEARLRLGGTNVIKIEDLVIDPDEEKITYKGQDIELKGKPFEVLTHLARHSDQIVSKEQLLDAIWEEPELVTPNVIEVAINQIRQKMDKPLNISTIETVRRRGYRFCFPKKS

[2] = biological target: T1, CosR (rCosR); test: competition with a labelled probe; details: EMSA: 20 mM HEPES pH 7.6, 1 mM EDTA, 10 mM (NH4)2SO4, 5 mM DTT, 0.2% Tween 20, 30 mM KCl, 0.1 ug poly(dI-dC) in 10 ul, 37 C 15 min, recombinant protein, probe letters rebuilt from the primers and the genome
[3] = biological target: T1, CosR (rCosR); test: DNase I footprinting; details: footprinting: same buffer + 10 mM MgCl2, 40 ul, 37 C 10 min, recombinant protein, label: 5'-32P on S17 strand, probe letters rebuilt from the primers and the genome

“AAAGCTCCTGGTAAGGCCAAACAAGTGGGACAAACATTGGTATTTGGAGCTTCTCCAAAAGAAGTTGCACATGAGCAAAAGATTTTTGTTTTTGTATTTAACTGAGCATGAACTTCAAGACCTATAACTACTTCAAACATAAAATTTCCTTGAATTTTTAAATGTTTTATTTTATCTTTTTTTCTTTTAGAAAGGCTTTAAATATTAACTTTAAATGCTATAATTCTTAGACAATTTATATTTAAGGAGTTAAAATGCCATTATTAGACAGCTTTAAAGTTGACCATACTAAAATGCCAGCTCCTGCTGTGCGTTTAGCTAAAGTTATGAAAACACCTAAGGGTGATGATATTAGCGTATTTGATTTGCGT (double strand) [luxS promoter EMSA probe]”: binds [1]; binds ([2]; unlabeled N3 competes with labeled N3, label: 32P).
“AATACTACCGCTCCTTTTGGACCTATGTTTTTATAAAGATTAAAATCTTGAACAATTTCATTGTTTCCTAATACCGCTGGAGCAGTAAAATCTAAAGCTTTTTTAGTAACTATCATATTTTCTCCTAAATAATAAATTTTATTGATAACGAAATTATATCGTTTAAATCTTTATTTTTTTTTAAATATCTAAGATAATATTAAAAATTTAAAAAAGTTATAATTATTATCAAATAAGGTAAATTTTTGATTATCAAAATTTACTTTATTTAAGAATTTTATGCTAAAATCTTTTAAATCTTAATATTAAATAAGGAGAAAAAATGGCTGTAAAAATTACAGATATATGTATTGCTTGTGGTTCTTGTATTGATGAGTGTCCAGTGAATGCTATCGTTGATGAT (double strand) [ahpC promoter EMSA probe]”: binds [1]; binds ([2]; unlabeled N4 competes with labeled N4, label: 32P).
“ACTAGCACAAGCTGGTTGATCATTATGTCCTACGCATTCAACGCATTTGTTTGCATAGACATAATATCTATCTTCACCTTCTGGATTGTTAGTATCATCAACGATAGCATTCACTGGACACTCATCAATACAAGAACCACAAGCAATACATATATCTGTAATTTTTACAGCCATTTTTTCTCCTTATTTAATATTAAGATTTAAAAGATTTTAGCATAAAATTCTTAAATAAAGTAAATTTTGATAATCAAAAATTTACCTTATTTGATAATAATTATAACTTTTTTAAATTTTTAATATTATCTTAGATATTTAAAAAAAAATAAAGATTTAAACGATATAATTTCGTTATCAATAAAATTTATTATTTAGGAGAAAATATGATAGTTACTAAAAAAGCTTTAGATTTTACTGCTCCAGCGGTATTAGGAAACAATGAAATTGTTCAAGATTTTAATCTTTATAAAAACATAGGTCCAAAAGGAGCGGTAGTATT (double strand) [ahpC promoter footprint probe]”: binds ([3]; 10 mM MgCl2, site BahpC-1 (-37 to -17)); binds ([3]; 10 mM MgCl2, site BahpC-2 (+1 to +21)).
“GCGAAGGATCCTAGTAATGCTGAGATTAGTACAACTTTTTTCATATTTTCCTCCTTATGAATAATTTTTAGTTGCAAATTAATTGTAATTATTAAAAATCAACAAATAGATATTTTTTGTAAAAATATTTCAAAAAAATATAATTTTTTATATATATTTAAATTATTATTAAAATATATTATAAATGTATCTTATTTTATTTAGATTAAATAAATAGAAATTTTACCCACTAAGCTTTTAAGATATTTTTACTCTTTTTAATATTATTATGGTAATATTTTCAATATCAAACTAAAAATAAAGGAGAAATTATGTTTGAATTAAGAAAATTACCTTATGATACCAATGCTTTTGGTGATTTCTAGAGTGCTG (double strand) [sodB promoter EMSA probe]”: binds [1]; binds ([2]; unlabeled N1 competes with labeled N1, label: 32P).
“TGCTTTTGGTGATTTTTTGAGTGCTGAAACTTTTAGCTATCATCATGGAAAACATCACAATACTTATGTTACAAATCTAAATAATCTTATTAAAGATACTGAATTTGCAGGTAAAGATCTTGTAAGTATTATCAAAACTTCAAATGGGGGCGTATTTAATAACGCAGCTCAAGTTTATAATCATGATTTTTATTTTGATTGCATTAAGCCAAGTACAGGCTGTGGCTGTGGCGGTTCATGTCAAAGTATAGATGCTAATTTACAAGCGGCACTAGAAAAAGAATTTGGATCTTTAGAAAATTTCAAAGCTGAATTTATCAAAGGCGCTACAGGAGTTTTTGGTTCAGGATGGTTTTGGTTAGTTTATAATACTAAAAATCAAAAACTAGAATTTGTAGGTACTTCAAACGCAGCTACACCAATTACTGAAGATAAAGTTCCTTTACTTGTTGTAGATGTTTGGGAACATGCTTATTATGTAGATCATCGCAATGCACGCCCTGCTTATTTAGAAAAATTCTATGCTCATATTAACTGGGAATTTGTTGCAAAAGCTTACGAATGGGCTTTAAAAGAAGGCATGGGATCAGTTAGCTTTTAT (double strand) [sodB internal coding region (I.C)]”: no binding ([2]; versus labeled sodB promoter N1).
“TTTTTGCCAAGATATTCAGCCACGCCTTTAGGGTTAGCTTTCATACCTTCATCGCCCTTATTCCATCCTGCAGGACAAACTTCACCATGCTCATTTGTAAAAAGCATAGTATCAACCATTCTTAACATTTCATCTATATTTCTACCTAGTGGTAAATCATTAACCACAGCATGGCGAACTGTTCCATCAGCATCAAGCAAGAACGAACCACGAAGGGCAACTGCTTCTGCATAAAGTACATCAAAATTTCTAGCAATCTGCTTAGTTAAATCAGCAACAAGTGGGAATTTAACCTGACCAATACCACCTTGATTTACTGGAGT (double strand) [ahpC internal coding region (I.C)]”: no binding ([2]; versus labeled ahpC promoter N4).
“TTTTTGGGCAATTTGTTTGGCTTCATCTAAAGAATGCATTGCGCAAGTTCCGCATTGGTAGATATTAAGTTCAGGAATTTTGCTTTGATCGCTTACGCTTAAAACATCTTTCATGGCTGCTTCCCAAGCTTTTGCAATACTTTTCTCATCAGGTGTTCCAATTAAACTCATATAAAAACCCGTGCGACAACCCATAGGTGAAATATCAATAATTTCAACTGAATTTGAATTAAGATGATCTCTCATAAATCCTGCGAATAAATGTTCTAAGGTATGAGTACCTTTTTCGCTCATAATGTCTTTA (double strand) [luxS internal coding region (I.C)]”: no binding ([2]; versus labeled luxS promoter N3).
